Results from patent US20080207537A1, “Topical Ungual Formulations” (priority 2005, published 2008).

Assay: Nail swelling study (weight increase of nail clippings immersed in penetration enhancer solution)
Parameters: species or system human
Details: for weight of the nail clippings after 20 h compared to the control: ANOVA, n=10 (FIG. 1)

SMILES: N.O=C(O)CS [Ammonium thioglycolate]
- weight of the nail clippings after 20 h compared to the control (single penetration enhancer): significantly increased
- physical change in appearance of treated nails (single penetration enhancer, compared to controls): softer than the controls and also lighter in colour

SMILES: O=C([O-])CS.O=C([O-])CS.[Ca+2] [Calcium thioglycolate]
- increase in nail weight, rank among salts of TA (salts of TA, all at 5% concentration, 20 h (FIG. 7)): largest increase in nail weight

SMILES: Cl.N[C@@H](CS)C(=O)O.O [Cysteine, L-Cysteine hydrochloride hydrate]
- weight of the nail clippings after 20 h compared to the control (single penetration enhancer): did not significantly increase

Some entries repeat one wording, which the source may state once for all of them.
